Measured values: patent US20220073922

Chains of the proteins cited; added tags and fusions are not shown. Chains listed by the source or under a name are the forms on record and can include a tag or linker.
UniProt P15692, other isoform, or with tags, fused parts or gaps: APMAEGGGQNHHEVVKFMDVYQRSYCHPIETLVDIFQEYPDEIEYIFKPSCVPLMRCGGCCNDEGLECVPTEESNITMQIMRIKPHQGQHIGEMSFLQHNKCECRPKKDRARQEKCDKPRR
UniProt Q00731, other isoform, or with tags, fused parts or gaps: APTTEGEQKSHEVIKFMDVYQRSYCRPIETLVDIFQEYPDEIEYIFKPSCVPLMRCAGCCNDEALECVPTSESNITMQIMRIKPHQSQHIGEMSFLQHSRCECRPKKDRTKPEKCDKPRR
VEGF-165 (VEGFA isoform 165) (Homo sapiens), one chain, as listed by the source: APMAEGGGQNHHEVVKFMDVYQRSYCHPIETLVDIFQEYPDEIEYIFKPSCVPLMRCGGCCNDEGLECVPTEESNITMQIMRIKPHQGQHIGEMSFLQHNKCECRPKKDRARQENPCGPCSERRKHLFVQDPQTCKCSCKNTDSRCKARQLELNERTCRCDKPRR

How the values were obtained:
Assay in all cases: flow cytometry
[1] = molecular target: VEGF-121 (VEGFA isoform 121) (Homo sapiens) (UniProt P15692); conditions: 2'-F all positions, purified recombinant protein, label: biotin
[2] = system: VEGF-165 (VEGFA isoform 165) (Homo sapiens); conditions: 2'-F all positions, PBSMCT, 37 C, purified recombinant protein, label: biotin
[3] = molecular target: VEGF-120 (Mus musculus) (UniProt Q00731); conditions: 2'-F all positions; range over all VEGF isoforms and vendors; PBSMCT, 37 C; purified recombinant protein; protein details: Shenandoah Biotechnology 200-52; label: biotin; variant of AMS0421

Sequence: AUUCUGUCUUUUUAAAUAAUGUCCCCUUGUUGCACAUUACAGAA [AMS0403]
- Kd ([1]; PBSMCT, 37 C): > 100 nM

Sequence: GCUCUUCAAUGUUAACUACCAAUCGUUGAUCGUUUUGCAGAAAAUUCC [AMS0405]
- Kd ([1]; PBSMCT, 37 C): > 100 nM

Sequence: UCCGCUUGCGGAGCACCUUCUGUAUUCUGC [AMS0409]
- Kd [2]: > 100 nM

Sequence: GCUCUUCGGUGUUAACUACCAAUCGUUGAUCGUUUUGCAAAAAAUUCC [AMS0406]
- Kd ([1]; PBSMCT, 37 C): > 100 nM

Sequence: GUGCUUCAUAUCCGUCCCCCCCUUGCUGCG [AMS0402]
- Kd ([1]; PBSMCT, 37 C): > 100 nM

Sequence: GGUUUAUCUUAACUUUCUGCUACGAUACAGUUUUUGUUGA [AMS0411]
- Kd [2]: > 100 nM

Sequence: GGAAAACAGUAUAAUGUCUUGUUUCUUCUC [AMS0410]
- Kd [2]: > 100 nM

Sequence: UUCUGUCUUUUUAGAUAAUGUCCCCUUGUUGCACAUUACA [AMS0404]
- Kd ([1]; PBSMCT, 37 C): > 100 nM

Sequence: GCUCUUCAGCCCCGCGCCGGGUCCCACUCUGCGCCGCUC [AMS0401]
- Kd ([1]; DPBS pH 7.2, 2.5 mM MgCl2, 1 mM CaCl2, 0.01% Tween-20, 37 C): > 100 nM

Sequence: CGUGGCGAUGCGUUCCGUCGAGGAUCGGCGAACACG [AMS0425.16]
- Kd ([1]; PBSMCT, 37 C, variant of AMS0425): > 100 nM
- Kd ([2]; variant of AMS0425): > 100 nM

Sequence: CGCUAGAUGGCUAACACUAUUGUGGAGAUGCACUAGCG [AMS0427]
- binding result [3]: binds

Sequence: UCCGCUUGCGGAGCAUCUUCUGUAUUCUGC [AMS0408]
- Kd [2]: > 100 nM

Sequence: UCCGCUUGCGGAGCAGCUUCUGUAUUCUGC [AMS0407]
- Kd [2]: > 100 nM

For some assays here: The exact form of at least one protein or probe is not confirmed.
